Experimental data: the supplement of paper PMC12819154, “High-throughput peptide-centric local stability assay extends protein–ligand identification to membrane proteins, tissues and bacteria” (Nature Structural & Molecular Biology, 2025)
The other results are listed elsewhere or left out. Small differences around the control level are noise.

Protein sequences, listed by entry. Tags and fused reporters are not part of them. Lines headed by an entry give the natural chain unless they say otherwise; changes in a name come on top.
UniProt Q8K1A5: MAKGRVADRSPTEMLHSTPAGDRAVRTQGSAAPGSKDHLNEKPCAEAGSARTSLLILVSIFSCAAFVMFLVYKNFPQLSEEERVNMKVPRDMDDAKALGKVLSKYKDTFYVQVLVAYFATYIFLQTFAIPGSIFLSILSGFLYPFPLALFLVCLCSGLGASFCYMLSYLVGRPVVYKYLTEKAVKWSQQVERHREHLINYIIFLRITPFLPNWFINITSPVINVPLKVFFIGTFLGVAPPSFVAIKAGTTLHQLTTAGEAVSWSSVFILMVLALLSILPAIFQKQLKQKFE
UniProt Q8R332: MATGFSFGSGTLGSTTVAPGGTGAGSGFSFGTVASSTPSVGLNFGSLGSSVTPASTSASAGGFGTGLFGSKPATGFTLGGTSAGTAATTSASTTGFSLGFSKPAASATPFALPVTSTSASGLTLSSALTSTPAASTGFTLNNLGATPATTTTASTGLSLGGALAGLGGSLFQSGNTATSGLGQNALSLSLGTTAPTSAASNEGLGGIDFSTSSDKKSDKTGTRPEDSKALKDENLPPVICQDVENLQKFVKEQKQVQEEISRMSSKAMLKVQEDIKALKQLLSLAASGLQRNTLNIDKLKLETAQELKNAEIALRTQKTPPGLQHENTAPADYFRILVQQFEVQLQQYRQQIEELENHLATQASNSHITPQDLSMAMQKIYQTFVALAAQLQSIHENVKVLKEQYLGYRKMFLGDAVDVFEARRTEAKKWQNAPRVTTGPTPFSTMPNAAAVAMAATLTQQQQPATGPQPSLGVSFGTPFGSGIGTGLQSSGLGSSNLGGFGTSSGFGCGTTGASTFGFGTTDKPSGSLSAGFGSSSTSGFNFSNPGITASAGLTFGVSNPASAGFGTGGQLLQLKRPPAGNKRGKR
UniProt Q8QZS1: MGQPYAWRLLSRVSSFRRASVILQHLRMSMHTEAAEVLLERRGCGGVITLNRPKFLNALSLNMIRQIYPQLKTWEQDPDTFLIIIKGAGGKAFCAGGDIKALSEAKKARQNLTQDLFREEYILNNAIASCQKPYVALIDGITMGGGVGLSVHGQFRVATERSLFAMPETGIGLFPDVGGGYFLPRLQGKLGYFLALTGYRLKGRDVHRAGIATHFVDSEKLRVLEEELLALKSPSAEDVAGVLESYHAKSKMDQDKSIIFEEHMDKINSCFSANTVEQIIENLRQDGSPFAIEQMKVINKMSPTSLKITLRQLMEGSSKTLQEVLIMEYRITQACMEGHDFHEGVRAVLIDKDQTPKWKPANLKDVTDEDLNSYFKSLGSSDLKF
UniProt Q8VCI5: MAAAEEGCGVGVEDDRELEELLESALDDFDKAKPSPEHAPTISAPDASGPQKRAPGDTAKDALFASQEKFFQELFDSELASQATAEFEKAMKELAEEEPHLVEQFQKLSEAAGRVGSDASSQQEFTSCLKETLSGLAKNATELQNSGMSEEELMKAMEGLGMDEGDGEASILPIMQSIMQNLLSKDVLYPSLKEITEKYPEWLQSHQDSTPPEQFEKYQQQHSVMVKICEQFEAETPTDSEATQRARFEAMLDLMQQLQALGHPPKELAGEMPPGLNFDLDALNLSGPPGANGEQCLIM
UniProt Q8JZL3: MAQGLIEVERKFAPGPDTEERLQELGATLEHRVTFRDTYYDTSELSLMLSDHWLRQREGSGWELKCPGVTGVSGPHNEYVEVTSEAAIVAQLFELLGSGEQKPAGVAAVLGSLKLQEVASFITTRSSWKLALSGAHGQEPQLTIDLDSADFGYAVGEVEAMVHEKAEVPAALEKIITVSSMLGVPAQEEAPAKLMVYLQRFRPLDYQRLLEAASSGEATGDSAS
UniProt Q8R1Q9: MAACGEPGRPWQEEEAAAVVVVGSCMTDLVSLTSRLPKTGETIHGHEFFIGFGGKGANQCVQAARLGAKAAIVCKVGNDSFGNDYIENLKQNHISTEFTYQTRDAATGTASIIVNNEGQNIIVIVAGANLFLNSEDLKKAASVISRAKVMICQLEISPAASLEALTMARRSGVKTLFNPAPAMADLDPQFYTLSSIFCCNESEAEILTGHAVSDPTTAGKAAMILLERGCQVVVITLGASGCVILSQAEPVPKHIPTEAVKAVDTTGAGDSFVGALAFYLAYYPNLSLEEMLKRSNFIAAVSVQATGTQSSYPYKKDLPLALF
UniProt Q8R4H2: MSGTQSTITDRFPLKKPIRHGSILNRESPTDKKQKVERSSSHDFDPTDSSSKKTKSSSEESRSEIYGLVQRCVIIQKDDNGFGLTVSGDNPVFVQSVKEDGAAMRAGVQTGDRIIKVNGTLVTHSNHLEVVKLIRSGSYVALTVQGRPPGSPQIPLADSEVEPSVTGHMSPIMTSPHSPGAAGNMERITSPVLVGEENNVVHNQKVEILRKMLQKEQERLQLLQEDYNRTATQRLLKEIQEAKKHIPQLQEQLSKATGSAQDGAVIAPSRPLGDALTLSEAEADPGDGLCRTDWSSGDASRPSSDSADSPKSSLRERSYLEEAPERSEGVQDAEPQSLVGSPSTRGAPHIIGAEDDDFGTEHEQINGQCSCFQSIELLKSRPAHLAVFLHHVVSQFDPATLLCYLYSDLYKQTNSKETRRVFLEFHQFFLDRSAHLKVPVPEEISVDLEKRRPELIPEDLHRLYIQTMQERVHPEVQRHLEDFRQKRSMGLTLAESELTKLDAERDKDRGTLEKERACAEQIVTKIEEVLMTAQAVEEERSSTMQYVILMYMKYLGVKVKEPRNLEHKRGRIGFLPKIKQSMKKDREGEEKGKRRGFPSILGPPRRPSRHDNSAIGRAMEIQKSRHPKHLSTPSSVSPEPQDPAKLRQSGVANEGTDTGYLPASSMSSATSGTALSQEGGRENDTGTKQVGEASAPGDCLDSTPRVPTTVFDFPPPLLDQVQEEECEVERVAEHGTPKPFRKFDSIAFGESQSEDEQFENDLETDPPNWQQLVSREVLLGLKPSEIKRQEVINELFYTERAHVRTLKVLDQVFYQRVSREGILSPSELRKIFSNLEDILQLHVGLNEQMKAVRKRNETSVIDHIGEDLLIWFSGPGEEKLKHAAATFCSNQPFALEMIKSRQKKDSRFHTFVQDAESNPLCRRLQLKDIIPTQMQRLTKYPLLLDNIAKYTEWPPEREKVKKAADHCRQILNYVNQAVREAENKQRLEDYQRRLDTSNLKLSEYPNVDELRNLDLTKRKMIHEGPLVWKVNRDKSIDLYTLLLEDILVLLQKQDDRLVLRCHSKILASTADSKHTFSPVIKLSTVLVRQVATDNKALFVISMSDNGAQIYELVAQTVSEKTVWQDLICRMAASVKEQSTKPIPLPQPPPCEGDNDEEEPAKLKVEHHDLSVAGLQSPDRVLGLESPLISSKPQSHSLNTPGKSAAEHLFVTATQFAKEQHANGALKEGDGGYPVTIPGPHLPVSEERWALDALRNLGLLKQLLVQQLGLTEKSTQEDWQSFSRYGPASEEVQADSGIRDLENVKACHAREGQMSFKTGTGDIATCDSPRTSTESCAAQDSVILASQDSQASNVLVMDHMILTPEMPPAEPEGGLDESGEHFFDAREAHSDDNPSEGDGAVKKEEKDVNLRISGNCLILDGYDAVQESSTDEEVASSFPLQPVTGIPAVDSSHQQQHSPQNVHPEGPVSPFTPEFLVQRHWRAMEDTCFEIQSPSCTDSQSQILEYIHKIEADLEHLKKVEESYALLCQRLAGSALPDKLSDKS
UniProt Q8K0C8: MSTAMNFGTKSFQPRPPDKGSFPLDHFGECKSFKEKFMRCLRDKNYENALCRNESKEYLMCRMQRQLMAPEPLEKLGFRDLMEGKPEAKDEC
UniProt Q8R326: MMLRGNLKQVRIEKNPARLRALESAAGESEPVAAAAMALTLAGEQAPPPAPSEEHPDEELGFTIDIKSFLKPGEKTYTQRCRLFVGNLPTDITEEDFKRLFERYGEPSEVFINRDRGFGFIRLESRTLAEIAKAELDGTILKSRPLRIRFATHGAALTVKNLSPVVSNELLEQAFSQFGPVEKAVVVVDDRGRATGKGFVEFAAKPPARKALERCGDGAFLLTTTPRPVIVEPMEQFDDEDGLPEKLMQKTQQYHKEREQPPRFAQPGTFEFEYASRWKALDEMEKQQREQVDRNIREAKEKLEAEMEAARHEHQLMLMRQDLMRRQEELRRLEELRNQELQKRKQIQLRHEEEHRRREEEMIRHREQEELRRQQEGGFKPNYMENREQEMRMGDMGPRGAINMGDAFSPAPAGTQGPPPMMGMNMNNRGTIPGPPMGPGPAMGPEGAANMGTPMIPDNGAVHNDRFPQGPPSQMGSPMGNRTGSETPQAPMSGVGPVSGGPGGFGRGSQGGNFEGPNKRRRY
UniProt Q8K0C4: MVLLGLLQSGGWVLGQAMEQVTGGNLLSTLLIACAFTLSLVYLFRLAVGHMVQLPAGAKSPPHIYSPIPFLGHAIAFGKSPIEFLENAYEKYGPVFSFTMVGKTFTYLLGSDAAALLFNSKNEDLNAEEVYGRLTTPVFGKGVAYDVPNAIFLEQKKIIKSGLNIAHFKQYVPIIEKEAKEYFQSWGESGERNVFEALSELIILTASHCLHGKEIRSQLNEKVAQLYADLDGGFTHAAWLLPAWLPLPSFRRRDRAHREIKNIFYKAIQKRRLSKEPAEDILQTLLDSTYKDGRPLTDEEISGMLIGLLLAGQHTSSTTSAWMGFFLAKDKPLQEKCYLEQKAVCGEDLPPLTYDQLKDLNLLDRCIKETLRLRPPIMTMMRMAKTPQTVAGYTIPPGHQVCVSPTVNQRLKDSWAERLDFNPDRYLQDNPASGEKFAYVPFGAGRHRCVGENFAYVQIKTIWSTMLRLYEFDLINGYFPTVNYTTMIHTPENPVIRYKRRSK
UniProt Q8R4U7: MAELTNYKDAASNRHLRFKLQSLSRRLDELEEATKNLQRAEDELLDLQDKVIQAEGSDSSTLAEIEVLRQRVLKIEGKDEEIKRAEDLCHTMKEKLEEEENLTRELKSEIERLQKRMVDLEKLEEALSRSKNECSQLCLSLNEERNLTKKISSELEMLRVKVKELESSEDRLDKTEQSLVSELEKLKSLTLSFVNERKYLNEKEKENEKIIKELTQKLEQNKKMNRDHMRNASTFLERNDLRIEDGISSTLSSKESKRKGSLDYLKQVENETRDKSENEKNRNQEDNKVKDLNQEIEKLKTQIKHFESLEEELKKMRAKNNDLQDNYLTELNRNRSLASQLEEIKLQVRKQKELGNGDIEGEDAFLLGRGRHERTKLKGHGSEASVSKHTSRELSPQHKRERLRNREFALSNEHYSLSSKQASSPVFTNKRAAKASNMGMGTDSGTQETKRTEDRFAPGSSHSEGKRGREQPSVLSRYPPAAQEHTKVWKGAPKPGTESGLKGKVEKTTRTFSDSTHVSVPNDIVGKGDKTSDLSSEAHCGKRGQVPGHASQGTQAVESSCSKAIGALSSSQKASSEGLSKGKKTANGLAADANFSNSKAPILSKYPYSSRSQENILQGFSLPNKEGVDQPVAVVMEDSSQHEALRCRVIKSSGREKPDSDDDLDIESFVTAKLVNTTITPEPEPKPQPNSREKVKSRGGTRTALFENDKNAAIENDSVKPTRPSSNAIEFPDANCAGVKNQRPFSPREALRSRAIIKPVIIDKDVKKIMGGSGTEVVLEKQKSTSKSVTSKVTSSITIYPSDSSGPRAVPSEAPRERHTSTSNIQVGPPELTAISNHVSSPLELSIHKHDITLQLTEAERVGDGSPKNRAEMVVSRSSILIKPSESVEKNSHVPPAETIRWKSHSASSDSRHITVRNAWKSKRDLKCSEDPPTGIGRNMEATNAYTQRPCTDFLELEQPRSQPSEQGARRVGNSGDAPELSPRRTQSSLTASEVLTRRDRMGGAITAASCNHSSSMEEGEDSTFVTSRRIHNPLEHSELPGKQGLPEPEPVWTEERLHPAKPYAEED
UniProt Q8R123: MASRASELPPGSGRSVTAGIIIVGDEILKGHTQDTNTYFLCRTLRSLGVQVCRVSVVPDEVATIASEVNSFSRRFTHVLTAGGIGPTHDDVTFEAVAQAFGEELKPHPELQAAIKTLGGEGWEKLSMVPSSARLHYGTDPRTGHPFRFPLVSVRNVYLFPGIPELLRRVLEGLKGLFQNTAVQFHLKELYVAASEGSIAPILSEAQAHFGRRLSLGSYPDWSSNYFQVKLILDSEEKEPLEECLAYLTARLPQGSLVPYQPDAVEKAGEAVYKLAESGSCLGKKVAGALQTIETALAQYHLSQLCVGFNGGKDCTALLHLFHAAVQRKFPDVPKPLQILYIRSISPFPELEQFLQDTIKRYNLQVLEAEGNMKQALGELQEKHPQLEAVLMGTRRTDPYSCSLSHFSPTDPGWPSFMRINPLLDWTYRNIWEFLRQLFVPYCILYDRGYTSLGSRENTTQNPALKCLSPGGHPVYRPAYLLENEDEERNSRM
UniProt Q8R404: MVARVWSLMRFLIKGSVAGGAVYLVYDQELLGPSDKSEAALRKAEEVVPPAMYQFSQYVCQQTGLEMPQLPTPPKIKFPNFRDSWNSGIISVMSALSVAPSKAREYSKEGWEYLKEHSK
UniProt Q8K199: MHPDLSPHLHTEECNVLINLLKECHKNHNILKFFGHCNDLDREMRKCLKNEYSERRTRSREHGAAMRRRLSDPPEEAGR

Compound: CN[C@@H]1C[C@H]2O[C@@](C)([C@@H]1OC)n1c3ccccc3c3c4c(c5c6ccccc6n2c5c31)C(=O)NC4 [staurosporine]
Experiment: log2 fold change of pooled soluble protein (PISA), ligand vs vehicle (log2 ratio); higher = more thermally stabilized
Details: ligand concentration: 20 uM; assay format: PISA pool 52.9/55.5/58.6 C

Target | log2 fold change of pooled soluble protein
UniProt Q8R0J7 | 0.168
UniProt Q8K1A5 | 0.0262
UniProt Q8CJ19 | -0.267
UniProt Q8R016 | -0.0256
UniProt Q8R332 | -0.0166
UniProt Q8QZS1 | 0.0605
UniProt Q8K1I7 | -0.0857
UniProt Q8R035 | -0.0166
UniProt Q8CI08 | -0.076
UniProt Q8K1E0 | -0.163
UniProt Q8K0R6 | -0.391
UniProt Q8VCI5 | 0.16
UniProt Q8JZL3 | -0.136
UniProt Q8R1Q9 | 0.0653
UniProt Q8K2Q0 | 0.125
UniProt Q8CHU3 | 0.0227
UniProt Q8R4H2 | -0.0304
UniProt Q8K0C8 | -0.346
UniProt Q8R326 | -0.113

Three entries from above, in markdown:

| Target | log2 fold change of pooled soluble protein |
| --- | --- |
| UniProt Q8R0J7 | 0.168 |
| UniProt Q8CJ19 | -0.267 |
| UniProt Q8R332 | -0.0166 |

The results go on.

Target | log2 fold change of pooled soluble protein
UniProt Q8VC48 | -0.0948
UniProt Q8K274 | 0.0554
UniProt Q8K0C4 | 0.131
UniProt Q8R4U7 | -0.0509
UniProt Q8K2I3 | -0.0398
UniProt Q8R3P9 | 0.019
UniProt Q8R4U0 | 0.0176
UniProt Q8R1Z9 | 0.16
UniProt Q8JZS0 | -0.0116
UniProt Q8QZR5 | -0.0601
UniProt Q8K3A9 | 0.0816
UniProt Q8R123 | 0.0306
UniProt Q8R404 | 0.199
UniProt Q8CHY3 | -0.046
UniProt Q8VCI0 | -0.0331
UniProt Q8K199 | -0.2
UniProt Q8CHH9 | -0.0565
UniProt Q8K370 | -0.0228
UniProt Q8K441 | 0.0658
